In patent US20230190750A1, “METHODS OF TREATING AND PREVENTING CANCER DRUG RESISTANCE” (Genentech, Inc., priority 2014, published 2023):
Some results were stated once for a whole list of compounds, not compound by compound.

Test system: HS 895.T normal skin fibroblast cells
Assay: Single and dual drug treatment, cell growth of HS 895.T normal skin fibroblast cells
Assay type: cell-based
Settings: growth observed on days 7, 14, 21, 28, 35
Protocol: FIG. 13.|A drug screen was performed on Hs 895.T normal skin fibroblast cells. The cells were treated with DMSO (control), GDC-0973 (i.e., cobimetinib), GDC-0032 (PI3K-Alpha Inhibitor), BFJ-398 (pan FGFR inhibitor), GDC-0973 and GDC-0032, or GDC-0973 and BGJ-398.
Experiments were performed on HS 895.T normal skin fibroblast cells to determine the effect of single and dual drug treatment on cell growth (FIG. 13). The cells were treated with DMSO (control), GDC-0973, GDC-0032, BGJ398, GDC-0973 and GDC-0032, or GDC-0973 and BGJ398. Cell growth was observed on days 7, 14, 21, 28, and 35, or until the cells had reached near 100% confluency. […] The cells treated with GDC-0973, GDC-0032, GDC-0973 and GDC-0032, and GDC-0973 and BGJ398 never reached confluency through day 35.

O=C(c1ccc(F)c(F)c1Nc1ccc(I)cc1F)N1CC(O)([C@@H]2CCCCN2)C1 [GDC-0973, [3,4-Difluoro-2-(2-fluoro-4-iodo-phenylamino)-phenyl]-((S)-3-hydroxy-3-pi-peridin-2-yl-azetidin-1-yl)-methanone]
day by which cells reached confluency: > 35 days

Cc1nc(-c2cn3c(n2)-c2ccc(-c4cnn(C(C)(C)C(N)=O)c4)cc2OCC3)n(C(C)C)n1 [GDC-0032]
day by which cells reached confluency: > 35 days
